{"source": "patent US12138267B2", "about": "“Methods of treating respiratory depression modulated by a non-opioid agent” (Enalare Therapeutics Inc., priority 2021, dated 2024)", "test_system": "healthy participants", "note": "Like-named read-outs stand apart in the source and are kept apart here."}
{"smiles": "CCCNc1nc(NCCC)nc(N(C)OC)n1", "note": "[Compound A]", "values": [{"measurement": "SpO2 during hypoxic measurements", "setting": "Compound A high dose", "value": "80.4-84.2%"}, {"measurement": "SpO2 during hypoxic measurements", "setting": "Compound A low dose", "value": "81.2-83.7%"}]}
